This is an account of results in US20250214977A1, “STAT6 INHIBITORS AND USES THEREOF” (Kymera Therapeutics, Inc., priority 2024, published 2025).

The chains behind the UniProt entries cited, without tags or fusion partners. Residues count along the entry.
UniProt P42226, 123-632 limits assumed: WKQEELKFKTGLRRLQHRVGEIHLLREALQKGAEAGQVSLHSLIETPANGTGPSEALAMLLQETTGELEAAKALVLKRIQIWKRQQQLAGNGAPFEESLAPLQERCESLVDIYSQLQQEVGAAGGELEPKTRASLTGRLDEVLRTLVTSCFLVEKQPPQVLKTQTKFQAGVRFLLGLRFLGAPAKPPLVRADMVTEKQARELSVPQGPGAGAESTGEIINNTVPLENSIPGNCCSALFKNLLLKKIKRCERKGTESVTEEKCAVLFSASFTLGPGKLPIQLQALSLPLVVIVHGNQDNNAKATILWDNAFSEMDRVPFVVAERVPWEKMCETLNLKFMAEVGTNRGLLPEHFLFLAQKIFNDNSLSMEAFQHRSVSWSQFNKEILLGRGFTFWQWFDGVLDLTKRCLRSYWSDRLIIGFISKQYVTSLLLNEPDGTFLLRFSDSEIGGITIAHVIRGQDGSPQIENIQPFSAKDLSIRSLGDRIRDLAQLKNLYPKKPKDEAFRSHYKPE

The match of structure and compound is tentative.

Test [1] concerns the target biotinylated truncated STAT6 (123-632)-avi (Homo sapiens, UniProt P42226). In words: Homogenous Time-Resolved Fluorescence (HTRF) binding assay. As to conditions: read-out: STAT6 HTRF: Average IC50; 0.15 nM biotinylated truncated STAT6 (123-632)-avi, 20 nM fluorescein-labeled probe, 30 minutes at room temperature. The method, then:
Example 1. Homogenous Time-Resolved Fluorescence (HTRF) Binding Assay
HTRF binding assays were performed using 0.15 nM biotinylated truncated STAT6 (123-632)-avi purified from E. coli, 1× Streptavidin-terbium (CisBio) prepared by mixing SA-Tb in PPI detection buffer (CisBio), 20 nM proprietary fluorescein-labeled probe, and test compounds in assay buffer consisting of 50 mM HEPES-Na pH 7.5, 100 mM NaCl, 1 mM EDTA, 2 mM DTT, 0.1% Tween-20 with a final volume of 20 uL. Compound stocks were dissolved at 10 mM in 100% DMSO and 11 point titration with 3 fold serial dilution was performed in white, opaque 384 well microplates. Reaction plates were incubated at room temperature for 30 minutes. Plates were centrifuged at low rpm for 5 mins, and the ratio of fluorescence intensities were measured at emission wavelengths for fluorescein acceptor (520 nm) and terbium donor (495 nm) on Envision Plate reader. % Inhibition was calculated from the 520/495 ratio generated by using proprietary positive control compound for 100% inhibition and DMSO only reactions for 0% inhibition. Data was processed and dose response curves were generated using GraphPad Prism to determine the concentration required for inhibiting 50% of the HTRF signal (IC50).
A general note: In TR-FRET formats the signal depends on donor and acceptor labels being close together.

In test [2] the test system is Phosphorylation of STAT6 in human A549 cells. In words: Phosphorylated STAT6 (pSTAT6) flow cytometry assay in human A549 cells. The conditions noted are these: read-out: STAT6 IL4 pSTAT6 assay in A549 cells: Average IC50. From the text:
Example 3. Phosphorylated STAT6 (pSTAT6) Flow Cytometry Assay in Human A549 Cells
Phosphorylation of STAT6 in human A549 cells was quantitatively measured using flow cytometry technology.
In general terms: Flow cytometry measures light scatter and fluorescence of single cells or particles in a stream.

One may read the IC50 as the concentration that gives 50% inhibition. With `CNCc1cc(C2=CCCN(C(=O)CCn3ccnn3)C2)cc2cc(C(=O)N(C)C)oc12` [Example I-203], the IC50 in test [1] and in test [2] was 0.1 to 1 µM each time.
